Literature values in PMC8383301 (Molecular Pharmaceutics, 2021).

Tested on: P-gp
Conditions: rat brain microvessels; after 24 h of abstinence; cited from earlier work

CN1CC[C@]23c4c5ccc(O)c4O[C@H]2[C@@H](O)C=C[C@H]3[C@H]1C5 [morphine]
increase of P-gp expression compared to control animals: 1.5 times
